Consider two compounds from patent publication US20240034722A1, “PRETARGETING IMAGING AGENTS” (Eli Lilly and Company, priority 2020, published 2024).

The test system of this series is Malat1 ASO-TCO. Description: Reaction of [19F] tetrazines with Malat1 ASO-TCO monitored by LC-MS. As to conditions: two equivalents tetrazine, water, room temperature, 30 min. The source says:
Based on literature precedent, the tetrazines claimed herein would be expected to have utility as prosthetic groups for the labeling of biomolecules. The reactivity of tetrazines N-(4-(1,2,4,5-tetrazin-3-yl)benzyl)-2-fluoropicolinamide and N-(4-(1,2,4,5-tetrazin-3-yl)benzyl)-6-fluoropicolinamide with trans cyclooctene (TCO) conjugated to a biomolecule, Malat1 antisense oligonucleotide (ASO) (2019 World Molecular Imaging Congress Conference, Poster 139), was confirmed in both [^19F] and [^18F] experiments monitored with LC-MS and HPLC-radiodetection, respectively.
To a solution of 2.5 mg/mL (2.67 μM) Malat1 ASO-TCO in water, two equivalents tetrazine was added, and gently shaken at room temperature, protected from light, for 30 min. The reaction mixture was monitored by ES/MS on a Waters® Acquity UPLC system equipped with a Waters® Xevo QT of mass spectrometer. LC-MS conditions were as follows: column: Waters® ACQUITY PREMIER UPLC Oligonucleotide BEH C18 (130 Å. 1.7 μm, 2.1 mm×50 mm); wavelength 250-650 nm; gradient: initial hold at 5% B for 3.5 min, 5-75% B in 1.5 min, hold 75% B for 4 min, increase from 75-98% B in 0.5 min, hold 98% B for 1 min, and return to 5% B to reequilibrate; column temperature: 70° C. +/−5° C.; flow rate: 0.2 mL/min; solvent for A: 7 mM TEA and 100 mM HFIP in water; solvent for B; 7 mM TEA and 100 mM HFIP in 75% methanol/25% acetonitrile. […]

For the compound `O=C(NCc1ccc(-c2nncnn2)cc1)c1cccc(F)n1` [Example 3, N-(4-(1,2,4,5-tetrazin-3-yl)benzyl)-6-fluoropicolinamide], the “Reaction of Malat1 ASO-TCO with tetrazine (LC-MS)” value is listed as “full reaction”. Under `O=C(NCc1ccc(-c2nncnn2)cc1)c1cccnc1F` [Example 1, N-(4-(1,2,4,5-tetrazin-3-yl)benzyl)-2-fluoronicotinamide] stands “full reaction”.
